Results published in patent publication US12390482B2, “Neurolytic agents and methods of using and identifying same” (priority 2021, dated 2025).
At least one structure is not confirmed: it was looked up by name or label, or the drawing left a doubt. Some of these results come from one statement about several compounds together.

Assays:
WT DRG neurons = assay: Metabolite measurement by LC-MS/MS in WT DRG neurons; assay type: cell-based, mouse; conditions: DRG neurons treated with 3-AP
Procedure: DRG neuron culture: Mouse DRG culture was as described previously. Mouse DRGs were dissected at embryonic day 13.5. Approximately 50 ganglia were collected from each embryo and dissociated in 0.05% Trypsin containing 0.02% EDTA (Gibco) at 37° C. for 20 min. The DRG neurons were washed 3 times with DRG culture medium after incubation with Trypsin. Cells were seeded as spot cultures in 96-tissue culture plates (Corning) coated with 0.1 mg/ml poly-D-lysine and 0.1 mg/ml laminin. They were cultured in Neurobasal (Gibco) containing 2% B27 (Invitrogen), 100 ng/ml 2.5S NGF (Harlan Bioproducts), and 1 μM 5-fluoro-2′-deoxyuridine/1 μM uridine. The culture medium was exchanged with fresh DRG culture medium every 2-3 days. Lentiviruses were added 3 days after seeding (DIV3).
Metabolite measurement using LC-MS/MS: Lyophilized samples were reconstituted with 50 μl of 5 mM ammonium formate and centrifuged at 12,000 g for 10 min. Cleared supernatants were transferred to sample vials. Serial dilutions of standards for each metabolite in 5 mM ammonium formate were used for calibration. […] Raw data were acquired and quantified using MassHunter Workstation software version B.08.00 for 6400 Series Triple Quadrupole (Agilent Technologies, Santa Clara, CA).

SARM1 = target: T1, SARM1 (Homo sapiens, UniProt Q6SZW1); assay: SARM1 activation assay by PC6 fluorescence; assay type: biochemical; conditions: 0 to 100 μM 3-APMN
T1 construct: StrepTag (N); made in house; host or cells: HEK 293T cells stably expressing NRK1
T1 sequence (Q6SZW1 28-724): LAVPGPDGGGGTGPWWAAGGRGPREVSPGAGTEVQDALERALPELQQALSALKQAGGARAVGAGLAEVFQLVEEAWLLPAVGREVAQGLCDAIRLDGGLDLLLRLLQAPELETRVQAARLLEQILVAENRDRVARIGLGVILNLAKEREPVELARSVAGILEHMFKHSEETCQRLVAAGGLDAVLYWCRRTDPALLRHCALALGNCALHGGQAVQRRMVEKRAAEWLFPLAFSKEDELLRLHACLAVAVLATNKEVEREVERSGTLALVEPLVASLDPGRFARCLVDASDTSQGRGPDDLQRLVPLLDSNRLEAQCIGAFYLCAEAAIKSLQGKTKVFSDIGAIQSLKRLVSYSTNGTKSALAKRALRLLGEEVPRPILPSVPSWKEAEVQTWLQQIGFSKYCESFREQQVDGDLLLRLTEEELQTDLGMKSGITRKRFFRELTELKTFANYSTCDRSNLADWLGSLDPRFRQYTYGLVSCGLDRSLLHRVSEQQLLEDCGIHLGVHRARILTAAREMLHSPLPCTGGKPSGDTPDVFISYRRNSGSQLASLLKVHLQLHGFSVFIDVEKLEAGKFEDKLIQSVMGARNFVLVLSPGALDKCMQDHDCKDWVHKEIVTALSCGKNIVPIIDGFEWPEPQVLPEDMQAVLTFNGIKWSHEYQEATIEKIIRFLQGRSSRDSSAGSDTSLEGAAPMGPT
Procedure: SARM1 protein purification from mammalian cells: A HEK 293T cell line stably expressing NRK1 was used to produce SARM1 protein as previously described. In short, plasmid containing N-terminal StrepTag-SARM1 was transfected into NRK1-HEK 293T cells using X-tremeGENE reagent (Millipore Sigma). After 2 days, the cells were harvested and re-suspended with binding buffer (100 mM Tris-HCL pH 8, 150 mM sodium chloride, 0.01% Tween-20 with EDTA-free protease inhibitors (Pierce)). After sonication, cell debris was removed by centrifugation at 15,000×g for 10 minutes. Soluble lysates were then mixed with StrepTactin Megbeads (Cube Biotech) equilibrated with the same binding buffer. After incubation at 4° C. for 60 minutes, beads were washed with washing buffer (25 mM HEPES, pH 7.5 and 150 mM NaCl with EDTA-free protease inhibitors). […]
SARM1 activation assay by PC6 fluorescence: Modified from previous paper, typically, in a mixture of 50 μl, ˜200 ng of SARM1(on-beads) was mixed with 50 μM PC6, 50 μM NAD^+ and 0 to 100 μM of purified 3APMN. The reaction was carried out in a Bio Tek's Cytation 5 plate reader at 25° C. Fluorescence signal, which corresponds to PAD6 formation, was recorded with 405 nm excitation and 520 nm emission wavelengths every 2 minutes. The production rate of PAD6 was calculated based on the fluorescence changes within the first 30 minutes of reaction.

| SMILES | time to peak level in neurons after 3-AP addition (WT DRG neurons) [h] | SARM1 hydrolase activity (PC6 fluorescence) (SARM1) |
| --- | --- | --- |
| CC(=O)c1ccc[n+]([C@@H]2O[C@H](COP(=O)([O-])OP(=O)(O)OC[C@H]3O[C@@H](n4cnc5c(N)ncnc54)[C@H](O)[C@@H]3O)[C@@H](O)[C@H]2O)c1 [3-APAD, 3-acetylpyridine adenine dinucleotide] | ≤ 2 |  |
| CC(=O)c1ccc[n+]([C@@H]2O[C@H](COP(=O)([O-])O)[C@@H](O)[C@H]2O)c1 [3-APMN, 3-acetylpyridine mononucleotide] | ≤ 2 | increases with 3-APMN concentration |
